{"source": "PubChem BioAssay AID504793 (Drosophila RNAi Screening Center, 2011)", "test": "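Knock-downs allowing continued mitosis even though DNA is damaged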 (primary screen)", "cells": "Drosophila S2R+ cells", "reagents": "long dsRNA against Drosophila genes, about 0.25 µg dsRNA per well", "time to read-out": "4 days of dsRNA, then 4 hours of drug before read-out", "treatment": "doxorubicin 0.5 µM for 4 hours to cause double-strand breaks, in cells also given a low, harmless dose of dsRNA against nbs to sensitise the assay", "read-out": "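Per-well count of mitotic cells stained for phospho-histone H3 after doxorubicin exposure, used as mitotic index; counts are raw and not normalised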", "scale": "mitotic cells: higher = more cells in mitosis, weaker G2 arrest", "hit rule": "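a call needs confirmation in secondary tests, with other dsRNAs and a check of mitotic timing without damage, not just a high primary count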", "calls": "active = confirmed in follow-up tests; inactive = not confirmed", "note": "The deposit covers about 23,000 reagents; this is an unselected part of those that have a named target and a result. Of all reagents, 62 (0.27%) were called active. 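Calls come from follow-up tests whose scores are not deposited, so confirmed genes may have low counts here; counts are not normalised per plate.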 Raw values are not corrected between plates. Names joined by + are all predicted targets of the reagent."}
{"target": "Sptr (GeneID 31781)", "amplicon": "DRSC18719", "mitotic cells, replicate 1": 6, "Outcome": "inactive"}
{"target": "Pep (GeneID 45961)", "amplicon": "DRSC11252", "mitotic cells, replicate 1": 1, "Outcome": "inactive"}
{"target": "CG30178 (GeneID 246501)", "amplicon": "DRSC21911", "mitotic cells, replicate 1": 11, "Outcome": "inactive"}
{"target": "tara (GeneID 53562)", "amplicon": "DRSC23014", "mitotic cells, replicate 1": 12, "Outcome": "inactive"}
{"target": "tara (GeneID 53562)", "amplicon": "DRSC29664", "mitotic cells, replicate 1": 8, "Outcome": "inactive"}
{"target": "CG9067 (GeneID 36197)", "amplicon": "DRSC07328", "mitotic cells, replicate 1": 8, "Outcome": "inactive"}
{"target": "CG18507 (GeneID 34775)", "amplicon": "DRSC01914", "mitotic cells, replicate 1": 3, "Outcome": "inactive"}
{"target": "Mst84Dc (GeneID 40887)", "amplicon": "DRSC12599", "mitotic cells, replicate 1": 6, "Outcome": "inactive"}
{"target": "Uev1A (GeneID 38613)", "amplicon": "DRSC09763", "mitotic cells, replicate 1": 9, "Outcome": "inactive"}
{"target": "CG33286 (GeneID 2768984)", "amplicon": "DRSC11691", "mitotic cells, replicate 1": 4, "Outcome": "inactive"}
{"target": "CG33286 (GeneID 2768984)", "amplicon": "DRSC26119", "mitotic cells, replicate 1": 7, "Outcome": "inactive"}
{"target": "meigo (GeneID 42510)", "amplicon": "DRSC15877", "mitotic cells, replicate 1": 9, "Outcome": "inactive"}
{"target": "meigo (GeneID 42510)", "amplicon": "DRSC25836", "mitotic cells, replicate 1": 2, "Outcome": "inactive"}
{"target": "CG18418 (GeneID 38572)", "amplicon": "DRSC08535", "mitotic cells, replicate 1": 4, "Outcome": "inactive"}
{"target": "CG18418 (GeneID 38572)", "amplicon": "DRSC25732", "mitotic cells, replicate 1": 4, "Outcome": "inactive"}
{"target": "betaTub56D (GeneID 37238)", "amplicon": "DRSC07583", "mitotic cells, replicate 1": 95, "Outcome": "inactive"}
{"target": "betaTub56D (GeneID 37238)", "amplicon": "DRSC23516", "mitotic cells, replicate 1": 103, "Outcome": "inactive"}

Single entries from the list.
Result for Sptr (GeneID 31781) [DRSC18719] under “Outcome”: inactive
Value of meigo (GeneID 42510) [DRSC15877] in “Outcome”: inactive
For “mitotic cells, replicate 1”, CG18507 (GeneID 34775) [DRSC01914] shows 3

The list goes on.
{"target": "TfIIA-L (GeneID 43284)", "amplicon": "DRSC16882", "mitotic cells, replicate 1": 11, "Outcome": "inactive"}
{"target": "CG9521 (GeneID 32414)", "amplicon": "DRSC20196", "mitotic cells, replicate 1": 8, "Outcome": "inactive"}
{"target": "lectin-24A (GeneID 53543)", "amplicon": "DRSC00604", "mitotic cells, replicate 1": 2, "Outcome": "inactive"}
{"target": "sif (GeneID 43892)", "amplicon": "DRSC08759", "mitotic cells, replicate 1": 7, "Outcome": "inactive"}
{"target": "sif (GeneID 43892)", "amplicon": "DRSC11395", "mitotic cells, replicate 1": 4, "Outcome": "inactive"}
{"target": "sif (GeneID 43892)", "amplicon": "DRSC22065", "mitotic cells, replicate 1": 10, "Outcome": "inactive"}
{"target": "sif (GeneID 43892)", "amplicon": "DRSC22828", "mitotic cells, replicate 1": 3, "Outcome": "inactive"}
{"target": "sif (GeneID 43892)", "amplicon": "DRSC26730", "mitotic cells, replicate 1": 9, "Outcome": "inactive"}
{"target": "Pstk + CG14210 + Tim9b", "amplicon": "DRSC19566", "mitotic cells, replicate 1": 6, "Outcome": "inactive"}
{"target": "Pstk + CG14210 + Tim9b", "amplicon": "DRSC29021", "mitotic cells, replicate 1": 7, "Outcome": "inactive"}
{"target": "dop (GeneID 39686)", "amplicon": "DRSC10655", "mitotic cells, replicate 1": 4, "Outcome": "inactive"}
{"target": "dop (GeneID 39686)", "amplicon": "DRSC29525", "mitotic cells, replicate 1": 1, "Outcome": "inactive"}
{"target": "daw (GeneID 33474)", "amplicon": "DRSC00479", "mitotic cells, replicate 1": 8, "Outcome": "inactive"}
{"target": "daw (GeneID 33474)", "amplicon": "DRSC24450", "mitotic cells, replicate 1": 2, "Outcome": "inactive"}
{"target": "Cyp4g15 (GeneID 32093)", "amplicon": "DRSC20240", "mitotic cells, replicate 1": 9, "Outcome": "inactive"}
{"target": "CkIIalpha (GeneID 48448)", "amplicon": "DRSC11946", "mitotic cells, replicate 1": 9, "Outcome": "inactive"}
{"target": "Ssb-c31a (GeneID 34120)", "amplicon": "DRSC03443", "mitotic cells, replicate 1": 5, "Outcome": "inactive"}
{"target": "Ssb-c31a (GeneID 34120)", "amplicon": "DRSC28004", "mitotic cells, replicate 1": 5, "Outcome": "inactive"}
{"target": "ana2 (GeneID 35878)", "amplicon": "DRSC05952", "mitotic cells, replicate 1": 8, "Outcome": "inactive"}
{"target": "ana2 (GeneID 35878)", "amplicon": "DRSC26549", "mitotic cells, replicate 1": 7, "Outcome": "inactive"}
{"target": "GstE13 (GeneID 35928)", "amplicon": "DRSC06083", "mitotic cells, replicate 1": 6, "Outcome": "inactive"}
{"target": "Dyb (GeneID 36362)", "amplicon": "DRSC07208", "mitotic cells, replicate 1": 13, "Outcome": "inactive"}
{"target": "Dyb (GeneID 36362)", "amplicon": "DRSC22862", "mitotic cells, replicate 1": 11, "Outcome": "inactive"}
{"target": "Dyb (GeneID 36362)", "amplicon": "DRSC29699", "mitotic cells, replicate 1": 5, "Outcome": "inactive"}
{"target": "Su(z)12 (GeneID 48071)", "amplicon": "DRSC11293", "mitotic cells, replicate 1": 6, "Outcome": "inactive"}
{"target": "Su(z)12 (GeneID 48071)", "amplicon": "DRSC26081", "mitotic cells, replicate 1": 2, "Outcome": "inactive"}
